Results are given in words; binding and its absence hold for the method and conditions named. Binding seen in cells or lysates may run through a third protein. Some binding calls cover weakened binding; strength is not graded here.
Biological target: β1 integrin (Homo sapiens, UniProt P05556)
Experiment: pulldown with streptavidin beads from human osteogenic cells or HOS cells cultured 3 h on biotinylated VnP-16-coated dishes, immunoblot for β1 integrin

The chains behind the UniProt entries cited, without tags or fusion partners.
UniProt P05556: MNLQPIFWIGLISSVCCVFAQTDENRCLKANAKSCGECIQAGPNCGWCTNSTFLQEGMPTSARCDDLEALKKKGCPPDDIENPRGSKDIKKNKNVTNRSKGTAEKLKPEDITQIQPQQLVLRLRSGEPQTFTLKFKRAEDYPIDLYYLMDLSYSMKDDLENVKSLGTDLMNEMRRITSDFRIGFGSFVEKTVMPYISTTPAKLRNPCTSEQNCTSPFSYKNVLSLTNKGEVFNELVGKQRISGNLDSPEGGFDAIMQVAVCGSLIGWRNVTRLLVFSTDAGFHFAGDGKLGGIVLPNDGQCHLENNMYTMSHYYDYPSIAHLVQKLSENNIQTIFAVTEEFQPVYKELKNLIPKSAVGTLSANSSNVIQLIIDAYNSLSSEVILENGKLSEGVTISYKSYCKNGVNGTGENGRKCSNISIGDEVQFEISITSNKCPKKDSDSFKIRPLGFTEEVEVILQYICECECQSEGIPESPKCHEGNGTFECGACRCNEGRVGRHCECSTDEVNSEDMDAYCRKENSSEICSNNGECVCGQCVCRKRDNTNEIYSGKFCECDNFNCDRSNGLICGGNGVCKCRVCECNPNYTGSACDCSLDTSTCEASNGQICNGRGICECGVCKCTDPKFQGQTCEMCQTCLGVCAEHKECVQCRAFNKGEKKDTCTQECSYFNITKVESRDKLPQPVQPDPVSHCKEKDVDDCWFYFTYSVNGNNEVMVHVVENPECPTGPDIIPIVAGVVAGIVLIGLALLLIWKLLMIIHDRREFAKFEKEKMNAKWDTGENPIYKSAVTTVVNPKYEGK

- binding: binds
Binder: RVYFFKGKQYWE (biotin conjugated (position not given); C-terminal amide) [biotinylated VnP-16 peptide]

— patent US10588946B2, “Peptide for promoting bone formation or inhibiting bone resorption and use thereof” (SEOUL NATIONAL UNIVERSITY R&DB FOUNDATION, priority 2015, dated 2020)
